Source: PubChem BioAssay AID445 (National Center for Advancing Translational Sciences (NCATS), 2006)
This is one part of the list. Further columns of the screen follow, without active or inactive calls. Most of these compounds were active or inconclusive in the main read-out, so they are no random draw. The note in brackets gives the kind of curve behind each potency; many fits are weak.

Experiment: IkB Signaling
Conditions: ABC-DLBCL IkBa-CBG/CBR dual luciferase ratio (green luciferase fused to IkBa over red control in OCI-Ly3 lymphoma cells), 4 h
Procedure, shortened: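 Curves were fitted separately to fusion (green), unfused (red) and ratio luminescence, then classed by r2, magnitude and activity. Cells: OCI-Ly3, 4 h compound plus doxycycline at 37C; 10 uM MG-132 defined full response.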

[1] = measured here: control luc red channel unless noted

Question: For `Cc1cc(C)n2c(Nc3ccccc3)c(-c3ccccc3)nc2n1`, which AC50 [1] is on record?
Answer: 31.6 µM [falling, partial curve]

Question: For `CCn1c(=O)cc(OCC(=O)N2CCN(c3ccccc3OC)CC2)c2ccccc21`, which AC50 [1] is on record?
Answer: 10 µM [falling, partial curve, poor fit]

Question: For `CCN(CC)S(=O)(=O)c1csc(C(=O)NCc2ccccc2)c1`, which AC50 [1] is on record?
Answer: 31.6 µM [falling, single point]

Question: For `Cc1cccc(Cn2nnc(C(=O)Nc3cc(C)ccc3C)c2N)c1`, which AC50 [1] is on record?
Answer: 12.6 µM [falling, partial curve]

Question: For `COc1cccc(NC(=O)C2CCN(c3nc4ccccc4nc3C(F)(F)F)CC2)c1`, which AC50 [1] is on record?
Answer: 31.6 µM [falling, partial curve]

Question: For `O=C1C=CC(=O)c2c1ccc1c2ccc2ccccc21`, which AC50 [1] is on record?
Answer: 10 µM [rising, partial curve] [measured here: IkB-luc green channel]

Question: Which AC50 [1] does the source give for `Cc1cc(NC(=O)CC2CCCC2)n(-c2nc3ccccc3[nH]2)n1` here?
Answer: 31.6 µM [rising, single point] [measured here: IkB-luc green channel]

Question: Which AC50 [1] does the source give for `CCOC(=O)c1c(C)oc2nc(C)nc(NCCCN3CCN(c4ccc(F)cc4)CC3)c12` here?
Answer: 6.31 µM [rising, single point]

Question: For `O=C(/C=N/O)Nc1ccc(F)cc1`, which AC50 [1] is on record?
Answer: 3.98 µM [falling, partial curve]

Question: Which results are given for `COc1ccccc1NC(=O)c1ccc2oc(=O)c(S(=O)(=O)c3ccccc3)cc2c1`?
Answer: AC50 (measured here: IkB-luc green channel): 7.94 µM [rising, full curve]; AC50 (measured here: control luc red channel): 15.8 µM [falling, partial curve]

Question: For `CCOc1ccc(C2c3c(oc4ccccc4c3=O)C(=O)N2c2nnc(C)s2)cc1OC` (stereo unspecified), which AC50 [1] is on record?
Answer: 5.01 µM [rising, full curve]

Question: For `COc1ccc(-c2cc(C(=O)OCC(=O)N3CCCC3)c3ccccc3n2)cc1`, which AC50 [1] is on record?
Answer: 25.1 µM [falling, partial curve]

Question: Which AC50 [1] does the source give for `CCC(=O)Nc1ccc2c(c1)ncn2-c1ccccc1OC` here?
Answer: 15.8 µM [falling, partial curve]

Question: With `O=C(CN1C=NS(=O)(=O)c2ccc(C(F)(F)F)cc21)Nc1cccc(C(F)(F)F)c1` as the compound, how does the AC50 [1] read?
Answer: 39.8 µM [falling, single point]

Question: Which AC50 [1] does the source give for `COc1ccc(Nc2c3c(nc4ccc(NC(=O)/C=C/c5cccc(OC)c5OC)cc24)CCCC3)cc1OC` here?
Answer: 39.8 µM [falling, single point]

Question: With `CCOC(=O)c1cccc(NC(=O)CSc2nc3cccnc3n2C)c1` as the compound, how does the AC50 [1] read?
Answer: 10 µM [falling, partial curve]

Question: For `CCOc1ccc(C2CC(=O)c3c([nH]c(C(=O)OC4CCC(C)CC4)c3C)C2)cc1` (stereo unspecified), which AC50 [1] is on record?
Answer: 15.8 µM [falling, single point]

Question: With `COC(=O)c1cc(=O)n(Cc2ccco2)c(=Nc2ccc(F)c(Cl)c2)s1` as the compound, how does the AC50 [1] read?
Answer: 3.16 µM [falling, full curve]

Question: With `CCn1c(/C(C#N)=C/c2ccccc2Cl)nc2ccccc21` as the compound, how does the AC50 [1] read?
Answer: 6.31 µM [falling, partial curve]

Question: Which AC50 [1] does the source give for `CCc1cccc(NC(=O)CSc2nc3ccsc3c(=O)n2CC)c1` here?
Answer: 20 µM [falling, partial curve]

Question: For `Cc1ccc(CNC(=O)Cn2c(=O)n(Cc3ccccc3)c(=O)c3sc4ccccc4c32)cc1`, which AC50 [1] is on record?
Answer: 2 µM [rising, full curve]

Question: Which AC50 [1] does the source give for `O=C(Cn1c(S(=O)(=O)Cc2ccccc2)nc2ccccc21)N1CCCCC1` here?
Answer: 3.16 µM [rising, single point]

Question: Which AC50 [1] does the source give for `Cc1ccc(CN(Cc2cccn2-c2nnc(N3CCCC3=O)s2)C(=O)Nc2ccccc2C(F)(F)F)cc1` here?
Answer: 10 µM [falling, partial curve]

Question: Which AC50 [1] does the source give for `Cc1cc(C)c2sc(NC(=O)c3ccc(S(=O)(=O)N4CCOCC4)cc3)nc2c1` here?
Answer: 0.0631 µM [falling, full curve]

Question: For `Cn1c(=O)n(C)c2cc(N3CCOCC3)c(NC(=O)c3c(F)cccc3F)cc21`, which AC50 [1] is on record?
Answer: 7.94 µM [rising, single point]

Question: Which AC50 [1] does the source give for `O=C(NC1CC(=O)N(c2cccc(F)c2)C1)C(c1ccccc1)c1ccccc1` (stereo unspecified) here?
Answer: 12.6 µM [falling, partial curve]

Question: Which AC50 [1] does the source give for `CCC1C(=O)OCC1Cc1cncn1C` (stereo unspecified) here?
Answer: 7.94 µM [rising, partial curve, poor fit]

Question: For `Cn1c(-c2c(N)n(C3CCCC3)c3nc4ccccc4nc23)nc2ccccc21`, which AC50 [1] is on record?
Answer: 10 µM [falling, partial curve]

Question: With `C=CCc1ccc(OCc2ccc(C(=O)Nc3ccc(NC(C)=O)cc3)o2)c(OC)c1` as the compound, how does the AC50 [1] read?
Answer: 12.6 µM [falling, partial curve]

Question: Which AC50 [1] does the source give for `CCCC1(c2ccccc2)NC(=O)N(CC(=O)c2[nH]c(C)c(C(=O)OCC)c2C)C1=O` (stereo unspecified) here?
Answer: 31.6 µM [falling, single point]

Question: With `COc1cccc(NC(=O)Cn2cc(C(=O)c3ccc(F)cc3)c(=O)c3cc(OC)ccc32)c1` as the compound, how does the AC50 [1] read?
Answer: 7.94 µM [falling, partial curve]

Question: Which AC50 [1] does the source give for `Cc1cccc(Cn2cnc3c(oc4ccccc43)c2=O)c1` here?
Answer: 0.126 µM [falling, full curve, poor fit]

Question: Which AC50 [1] does the source give for `CCCn1c(=O)c(C(=O)Nc2ccccc2C(=O)OC)c(O)c2ccccc21` here?
Answer: 0.2 µM [falling, full curve]

Question: Which AC50 [1] does the source give for `N#Cc1ccc(NC2=NS(=O)(=O)c3ccccc32)cc1` here?
Answer: 3.98 µM [rising, partial curve]

Question: For `CCC(=O)N1CCc2cc(CNS(=O)(=O)c3ccc(Br)s3)ccc21`, which AC50 [1] is on record?
Answer: 1 µM [falling, partial curve]

Question: Which AC50 [1] does the source give for `Cc1ccc(C)c(N2C(=O)N(C)c3ccccc3S2(=O)=O)c1` here?
Answer: 0.501 µM [rising, full curve, poor fit]

Question: Which AC50 [1] does the source give for `NC(=O)C1CCN(C(=O)CCCCCn2c(=O)[nH]c3ccsc3c2=O)CC1` here?
Answer: 15.8 µM [falling, partial curve]

Question: Which AC50 [1] does the source give for `c1ccc(-c2cc(N3CCCCCC3)n[nH]2)cc1` here?
Answer: 12.6 µM [falling, partial curve]

Question: Which AC50 [1] does the source give for `CCC(CC)C(=O)Nc1c2cnn(-c3ccccc3)c2nc(=O)n1-c1ccccc1` here?
Answer: 15.8 µM [falling, partial curve]

Question: Which AC50 [1] does the source give for `O=c1cc(-c2ccc(F)cc2)nc(SCc2nc(-c3cccc(C(F)(F)F)c3)no2)[nH]1` here?
Answer: 25.1 µM [falling, single point]
